# No constants are given. Whether binding was seen depends on the method and setting. Binding seen in cells or lysates may run through a third protein. Some entries that bind do so weakly or less than the wild type.
# Amino acid sequences for entries named in this document (tags omitted). A change or cut given only in a name is not applied to a line headed by its entry.
# UniProt P20701: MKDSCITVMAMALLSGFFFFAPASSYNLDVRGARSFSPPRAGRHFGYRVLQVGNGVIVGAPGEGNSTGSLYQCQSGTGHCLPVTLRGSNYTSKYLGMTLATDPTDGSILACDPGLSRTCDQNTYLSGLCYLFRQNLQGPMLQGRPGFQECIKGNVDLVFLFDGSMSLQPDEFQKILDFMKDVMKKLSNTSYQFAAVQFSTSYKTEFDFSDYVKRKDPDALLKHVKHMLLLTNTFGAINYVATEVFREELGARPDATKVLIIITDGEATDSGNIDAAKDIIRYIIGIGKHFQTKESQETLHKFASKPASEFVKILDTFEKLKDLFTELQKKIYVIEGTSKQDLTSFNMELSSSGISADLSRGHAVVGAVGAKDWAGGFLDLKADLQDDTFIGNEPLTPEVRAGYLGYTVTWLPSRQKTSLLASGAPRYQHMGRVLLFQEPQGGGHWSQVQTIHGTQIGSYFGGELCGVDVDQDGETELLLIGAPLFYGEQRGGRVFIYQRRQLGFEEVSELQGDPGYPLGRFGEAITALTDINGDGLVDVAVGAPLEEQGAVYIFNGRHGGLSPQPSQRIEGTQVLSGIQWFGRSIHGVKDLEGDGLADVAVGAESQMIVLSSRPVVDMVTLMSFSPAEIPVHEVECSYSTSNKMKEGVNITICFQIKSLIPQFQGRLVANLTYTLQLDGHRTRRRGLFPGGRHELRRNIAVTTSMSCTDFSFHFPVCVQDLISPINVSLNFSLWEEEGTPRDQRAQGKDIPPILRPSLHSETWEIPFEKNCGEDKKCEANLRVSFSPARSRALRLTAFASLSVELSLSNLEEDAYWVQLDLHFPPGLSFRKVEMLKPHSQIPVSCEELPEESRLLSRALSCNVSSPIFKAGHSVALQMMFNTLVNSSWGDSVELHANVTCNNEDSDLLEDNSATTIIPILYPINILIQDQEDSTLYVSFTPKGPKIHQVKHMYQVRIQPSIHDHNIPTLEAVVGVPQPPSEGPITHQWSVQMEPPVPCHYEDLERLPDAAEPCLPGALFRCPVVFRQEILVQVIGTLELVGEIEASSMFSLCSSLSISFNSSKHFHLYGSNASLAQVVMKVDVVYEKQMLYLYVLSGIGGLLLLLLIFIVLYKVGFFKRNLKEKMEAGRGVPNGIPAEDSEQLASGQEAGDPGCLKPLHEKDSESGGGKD
# UniProt P05107: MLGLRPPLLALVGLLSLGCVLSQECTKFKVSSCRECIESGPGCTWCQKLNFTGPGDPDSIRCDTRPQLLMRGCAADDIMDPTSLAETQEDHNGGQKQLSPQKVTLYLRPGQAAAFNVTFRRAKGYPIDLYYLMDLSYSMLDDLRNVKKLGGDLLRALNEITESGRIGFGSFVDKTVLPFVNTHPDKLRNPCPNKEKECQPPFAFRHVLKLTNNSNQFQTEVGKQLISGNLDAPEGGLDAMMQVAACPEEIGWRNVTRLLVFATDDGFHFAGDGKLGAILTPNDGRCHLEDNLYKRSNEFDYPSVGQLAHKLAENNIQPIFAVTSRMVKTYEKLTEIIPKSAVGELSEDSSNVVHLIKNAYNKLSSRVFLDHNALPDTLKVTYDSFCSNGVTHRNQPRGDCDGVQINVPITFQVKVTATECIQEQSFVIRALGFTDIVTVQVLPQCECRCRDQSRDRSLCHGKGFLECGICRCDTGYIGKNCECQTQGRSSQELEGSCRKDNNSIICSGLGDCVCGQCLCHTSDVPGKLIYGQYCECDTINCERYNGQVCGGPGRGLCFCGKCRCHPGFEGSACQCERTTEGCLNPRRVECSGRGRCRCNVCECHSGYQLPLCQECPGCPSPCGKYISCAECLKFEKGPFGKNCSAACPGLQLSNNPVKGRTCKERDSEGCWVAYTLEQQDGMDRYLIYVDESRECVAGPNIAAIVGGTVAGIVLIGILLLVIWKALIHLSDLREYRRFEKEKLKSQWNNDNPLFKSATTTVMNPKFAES
# UniProt P37802: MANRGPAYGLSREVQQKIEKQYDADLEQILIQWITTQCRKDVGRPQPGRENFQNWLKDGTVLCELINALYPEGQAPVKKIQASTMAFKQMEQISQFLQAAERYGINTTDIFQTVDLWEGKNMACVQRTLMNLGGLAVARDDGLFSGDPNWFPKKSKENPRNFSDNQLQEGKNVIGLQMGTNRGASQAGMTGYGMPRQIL
# Experiments:
# LFA-1 (human) (human) [1] = target: T1, LFA-1 (human) (human) (UniProt P20701+P05107); assay: co-immunoprecipitation with TS1/18 (anti-LFA-1) and Western blot
# LFA-1 (human) (human) [2] = target: T1, LFA-1 (human) (human); assay: co-immunoprecipitation with TS1/18 (anti-LFA-1) and Western blot; Jurkat T cells and cotransfected HEK293T cells
substance,measurement,setting,value
TAGLN2 (transgelin-2) (from UniProt P37802 1-199),binding,LFA-1 (human) (human) [1],binds
same,binding,LFA-1 (human) (human) [2],binds

# Source: US20190309036A1
